No constants are given. Whether binding was seen depends on the method and setting. Binding seen in cells or lysates may run through a third protein. Binding can be weak; no strength is given.
Molecular target: mutant Klf4 (three zinc-fingers mutant / zinc-finger domain deleted) (UniProt O43474)
Assay: co-IP; HEK293T and SMMC7721 cells transfected with Flag-DDX17 or HA-Klf4 plasmid for 48 h, lysed; Flag-M2/HA beads; washed four times with cell lysis buffer; Western blotting (mutant Klf4 in HEK293T only)

The chains behind the UniProt entries cited, without tags or fusion partners. Where a name states a change or a piece, a line headed by the entry shows the natural chain unless it says otherwise.
UniProt O43474: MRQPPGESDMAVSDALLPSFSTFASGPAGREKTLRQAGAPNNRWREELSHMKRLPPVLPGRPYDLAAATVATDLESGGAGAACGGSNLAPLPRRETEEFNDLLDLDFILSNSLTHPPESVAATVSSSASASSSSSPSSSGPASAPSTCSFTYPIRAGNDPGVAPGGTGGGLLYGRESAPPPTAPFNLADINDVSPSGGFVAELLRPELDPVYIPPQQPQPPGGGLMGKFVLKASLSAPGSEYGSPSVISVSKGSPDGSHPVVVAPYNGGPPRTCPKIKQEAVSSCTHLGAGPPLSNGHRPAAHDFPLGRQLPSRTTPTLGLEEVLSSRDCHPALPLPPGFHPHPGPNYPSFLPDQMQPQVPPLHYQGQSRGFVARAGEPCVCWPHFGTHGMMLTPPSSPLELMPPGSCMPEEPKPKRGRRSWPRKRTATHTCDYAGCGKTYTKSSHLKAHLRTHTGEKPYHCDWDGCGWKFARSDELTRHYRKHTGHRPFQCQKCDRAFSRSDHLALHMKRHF
UniProt Q92841: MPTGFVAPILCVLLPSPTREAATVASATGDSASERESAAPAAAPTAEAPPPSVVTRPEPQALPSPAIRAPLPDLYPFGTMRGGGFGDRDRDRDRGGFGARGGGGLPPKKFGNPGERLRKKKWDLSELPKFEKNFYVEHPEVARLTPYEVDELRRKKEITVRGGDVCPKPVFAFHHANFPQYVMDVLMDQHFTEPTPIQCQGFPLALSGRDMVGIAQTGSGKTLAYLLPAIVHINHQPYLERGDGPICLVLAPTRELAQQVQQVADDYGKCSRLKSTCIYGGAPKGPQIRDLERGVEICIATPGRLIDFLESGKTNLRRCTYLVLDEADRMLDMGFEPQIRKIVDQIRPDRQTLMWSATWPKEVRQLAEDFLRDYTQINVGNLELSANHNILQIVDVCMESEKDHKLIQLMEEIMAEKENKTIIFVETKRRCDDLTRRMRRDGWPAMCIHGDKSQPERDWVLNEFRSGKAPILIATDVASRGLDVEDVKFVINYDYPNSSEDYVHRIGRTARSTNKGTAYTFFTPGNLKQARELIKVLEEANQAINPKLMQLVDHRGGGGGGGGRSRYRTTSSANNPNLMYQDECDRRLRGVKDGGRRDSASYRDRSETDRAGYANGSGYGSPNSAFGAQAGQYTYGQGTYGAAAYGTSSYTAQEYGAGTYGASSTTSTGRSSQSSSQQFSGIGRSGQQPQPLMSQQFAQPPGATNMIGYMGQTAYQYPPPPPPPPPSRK

binding: binds weakly
Substance: Flag-DDX17 (DEAD box RNA helicase 17) (from UniProt Q92841 1-729)
